Data from publication PMC7248104.

Sequences of proteins named here, by UniProt entry; tags and fusion partners are left off.
UniProt O60216: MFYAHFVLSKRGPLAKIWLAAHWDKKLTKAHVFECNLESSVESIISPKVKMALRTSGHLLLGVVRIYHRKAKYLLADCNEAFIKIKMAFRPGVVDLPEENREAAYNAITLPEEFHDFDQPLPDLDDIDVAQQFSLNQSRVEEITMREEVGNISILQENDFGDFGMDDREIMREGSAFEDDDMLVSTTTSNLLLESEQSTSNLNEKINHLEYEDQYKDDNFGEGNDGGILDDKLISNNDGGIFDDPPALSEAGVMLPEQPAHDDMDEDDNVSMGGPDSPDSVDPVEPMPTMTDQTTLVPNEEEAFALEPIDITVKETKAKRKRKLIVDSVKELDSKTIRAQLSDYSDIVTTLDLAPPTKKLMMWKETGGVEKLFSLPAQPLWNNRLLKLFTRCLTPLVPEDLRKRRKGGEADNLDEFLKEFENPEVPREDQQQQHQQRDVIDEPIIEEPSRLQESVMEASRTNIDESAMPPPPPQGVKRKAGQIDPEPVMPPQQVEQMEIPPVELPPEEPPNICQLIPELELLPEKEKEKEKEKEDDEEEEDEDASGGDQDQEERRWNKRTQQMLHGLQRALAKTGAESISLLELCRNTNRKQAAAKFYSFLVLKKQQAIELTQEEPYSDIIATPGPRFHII
UniProt Q9UQE7: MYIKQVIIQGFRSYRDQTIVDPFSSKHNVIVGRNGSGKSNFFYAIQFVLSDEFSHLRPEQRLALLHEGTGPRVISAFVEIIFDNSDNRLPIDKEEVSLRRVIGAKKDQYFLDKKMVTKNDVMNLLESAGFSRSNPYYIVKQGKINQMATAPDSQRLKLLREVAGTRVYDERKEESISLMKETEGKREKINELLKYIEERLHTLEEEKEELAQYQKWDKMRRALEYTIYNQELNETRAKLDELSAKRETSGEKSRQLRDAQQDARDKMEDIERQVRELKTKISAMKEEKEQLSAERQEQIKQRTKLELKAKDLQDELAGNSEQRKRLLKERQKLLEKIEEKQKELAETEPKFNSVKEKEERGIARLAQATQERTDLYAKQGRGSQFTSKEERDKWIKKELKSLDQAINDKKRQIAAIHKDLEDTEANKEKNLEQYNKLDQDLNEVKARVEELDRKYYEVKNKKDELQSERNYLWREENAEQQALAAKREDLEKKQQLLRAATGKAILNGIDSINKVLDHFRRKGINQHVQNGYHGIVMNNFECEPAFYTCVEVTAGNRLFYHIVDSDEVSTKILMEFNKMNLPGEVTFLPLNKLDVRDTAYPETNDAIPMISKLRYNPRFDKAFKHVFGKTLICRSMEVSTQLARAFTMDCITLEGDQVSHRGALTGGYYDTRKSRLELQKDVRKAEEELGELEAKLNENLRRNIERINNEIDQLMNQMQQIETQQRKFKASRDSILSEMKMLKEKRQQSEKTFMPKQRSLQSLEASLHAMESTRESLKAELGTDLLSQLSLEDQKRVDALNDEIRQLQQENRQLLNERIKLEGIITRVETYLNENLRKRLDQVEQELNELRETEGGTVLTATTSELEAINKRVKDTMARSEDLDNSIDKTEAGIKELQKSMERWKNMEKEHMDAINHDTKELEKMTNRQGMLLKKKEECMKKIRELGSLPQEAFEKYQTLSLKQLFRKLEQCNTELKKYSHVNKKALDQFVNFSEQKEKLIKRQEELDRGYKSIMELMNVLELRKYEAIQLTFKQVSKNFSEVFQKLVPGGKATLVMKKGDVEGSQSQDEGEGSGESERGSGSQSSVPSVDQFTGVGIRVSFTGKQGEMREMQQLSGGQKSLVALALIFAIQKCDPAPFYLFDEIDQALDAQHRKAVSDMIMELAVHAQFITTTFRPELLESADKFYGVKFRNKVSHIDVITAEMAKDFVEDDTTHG
UniProt P12270: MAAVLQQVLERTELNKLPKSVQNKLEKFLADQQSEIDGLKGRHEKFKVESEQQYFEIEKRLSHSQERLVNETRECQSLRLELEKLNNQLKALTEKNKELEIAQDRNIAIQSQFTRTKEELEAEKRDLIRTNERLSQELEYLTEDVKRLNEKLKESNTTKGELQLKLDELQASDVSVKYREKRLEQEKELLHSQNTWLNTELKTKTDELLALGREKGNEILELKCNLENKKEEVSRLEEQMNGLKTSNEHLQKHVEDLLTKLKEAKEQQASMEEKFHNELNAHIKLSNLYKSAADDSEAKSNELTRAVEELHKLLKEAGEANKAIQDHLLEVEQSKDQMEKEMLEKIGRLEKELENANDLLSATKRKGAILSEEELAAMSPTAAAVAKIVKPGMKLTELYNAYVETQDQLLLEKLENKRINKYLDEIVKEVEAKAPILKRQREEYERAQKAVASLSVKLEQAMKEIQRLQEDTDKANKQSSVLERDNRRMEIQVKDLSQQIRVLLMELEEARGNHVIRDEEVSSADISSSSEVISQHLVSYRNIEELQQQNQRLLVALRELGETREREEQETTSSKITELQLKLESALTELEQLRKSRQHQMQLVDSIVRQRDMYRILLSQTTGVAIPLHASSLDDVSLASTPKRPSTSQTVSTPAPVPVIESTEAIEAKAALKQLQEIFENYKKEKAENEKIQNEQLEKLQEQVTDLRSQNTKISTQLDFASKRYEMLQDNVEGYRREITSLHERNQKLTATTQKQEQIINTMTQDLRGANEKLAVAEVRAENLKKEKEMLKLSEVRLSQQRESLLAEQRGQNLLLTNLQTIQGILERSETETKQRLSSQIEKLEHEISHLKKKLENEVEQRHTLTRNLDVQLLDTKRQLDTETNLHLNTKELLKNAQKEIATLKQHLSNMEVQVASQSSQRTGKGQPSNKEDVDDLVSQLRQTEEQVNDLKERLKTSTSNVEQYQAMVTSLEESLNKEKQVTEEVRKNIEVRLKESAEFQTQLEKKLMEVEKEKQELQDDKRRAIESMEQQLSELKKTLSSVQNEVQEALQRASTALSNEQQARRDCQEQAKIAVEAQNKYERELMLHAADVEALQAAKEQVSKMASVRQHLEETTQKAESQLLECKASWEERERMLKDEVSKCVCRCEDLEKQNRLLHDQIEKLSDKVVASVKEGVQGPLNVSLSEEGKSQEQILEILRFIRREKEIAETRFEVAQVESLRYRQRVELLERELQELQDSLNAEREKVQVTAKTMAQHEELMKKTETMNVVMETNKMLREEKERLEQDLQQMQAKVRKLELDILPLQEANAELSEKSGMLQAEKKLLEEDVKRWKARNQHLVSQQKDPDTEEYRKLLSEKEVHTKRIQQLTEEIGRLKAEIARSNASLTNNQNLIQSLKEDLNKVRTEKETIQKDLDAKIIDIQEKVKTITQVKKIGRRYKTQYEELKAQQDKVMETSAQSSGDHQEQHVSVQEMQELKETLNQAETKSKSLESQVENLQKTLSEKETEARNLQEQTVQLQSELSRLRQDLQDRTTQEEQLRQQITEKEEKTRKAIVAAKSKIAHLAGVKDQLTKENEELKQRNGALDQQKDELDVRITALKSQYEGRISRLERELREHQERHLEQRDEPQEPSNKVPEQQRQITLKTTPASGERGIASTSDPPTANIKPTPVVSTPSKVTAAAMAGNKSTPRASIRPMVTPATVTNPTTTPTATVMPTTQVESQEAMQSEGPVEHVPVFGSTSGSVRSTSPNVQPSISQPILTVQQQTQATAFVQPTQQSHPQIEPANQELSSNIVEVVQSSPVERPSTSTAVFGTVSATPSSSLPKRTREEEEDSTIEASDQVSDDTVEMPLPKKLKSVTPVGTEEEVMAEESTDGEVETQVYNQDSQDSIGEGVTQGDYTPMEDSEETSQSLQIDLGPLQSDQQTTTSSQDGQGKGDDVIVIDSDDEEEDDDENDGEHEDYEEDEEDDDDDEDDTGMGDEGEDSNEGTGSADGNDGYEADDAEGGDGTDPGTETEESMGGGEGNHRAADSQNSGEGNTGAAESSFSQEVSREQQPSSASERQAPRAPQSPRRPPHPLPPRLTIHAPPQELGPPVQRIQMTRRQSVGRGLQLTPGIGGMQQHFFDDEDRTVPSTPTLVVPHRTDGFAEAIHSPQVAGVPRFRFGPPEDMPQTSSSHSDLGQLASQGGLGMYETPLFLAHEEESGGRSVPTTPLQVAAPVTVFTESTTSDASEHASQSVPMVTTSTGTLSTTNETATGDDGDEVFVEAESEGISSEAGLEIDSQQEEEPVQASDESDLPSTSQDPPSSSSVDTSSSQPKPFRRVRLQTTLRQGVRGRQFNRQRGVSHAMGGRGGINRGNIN

T1: FLAG-tagged mouse NUP153 (mouse) (UniProt E9Q3G8)
T1 sequence: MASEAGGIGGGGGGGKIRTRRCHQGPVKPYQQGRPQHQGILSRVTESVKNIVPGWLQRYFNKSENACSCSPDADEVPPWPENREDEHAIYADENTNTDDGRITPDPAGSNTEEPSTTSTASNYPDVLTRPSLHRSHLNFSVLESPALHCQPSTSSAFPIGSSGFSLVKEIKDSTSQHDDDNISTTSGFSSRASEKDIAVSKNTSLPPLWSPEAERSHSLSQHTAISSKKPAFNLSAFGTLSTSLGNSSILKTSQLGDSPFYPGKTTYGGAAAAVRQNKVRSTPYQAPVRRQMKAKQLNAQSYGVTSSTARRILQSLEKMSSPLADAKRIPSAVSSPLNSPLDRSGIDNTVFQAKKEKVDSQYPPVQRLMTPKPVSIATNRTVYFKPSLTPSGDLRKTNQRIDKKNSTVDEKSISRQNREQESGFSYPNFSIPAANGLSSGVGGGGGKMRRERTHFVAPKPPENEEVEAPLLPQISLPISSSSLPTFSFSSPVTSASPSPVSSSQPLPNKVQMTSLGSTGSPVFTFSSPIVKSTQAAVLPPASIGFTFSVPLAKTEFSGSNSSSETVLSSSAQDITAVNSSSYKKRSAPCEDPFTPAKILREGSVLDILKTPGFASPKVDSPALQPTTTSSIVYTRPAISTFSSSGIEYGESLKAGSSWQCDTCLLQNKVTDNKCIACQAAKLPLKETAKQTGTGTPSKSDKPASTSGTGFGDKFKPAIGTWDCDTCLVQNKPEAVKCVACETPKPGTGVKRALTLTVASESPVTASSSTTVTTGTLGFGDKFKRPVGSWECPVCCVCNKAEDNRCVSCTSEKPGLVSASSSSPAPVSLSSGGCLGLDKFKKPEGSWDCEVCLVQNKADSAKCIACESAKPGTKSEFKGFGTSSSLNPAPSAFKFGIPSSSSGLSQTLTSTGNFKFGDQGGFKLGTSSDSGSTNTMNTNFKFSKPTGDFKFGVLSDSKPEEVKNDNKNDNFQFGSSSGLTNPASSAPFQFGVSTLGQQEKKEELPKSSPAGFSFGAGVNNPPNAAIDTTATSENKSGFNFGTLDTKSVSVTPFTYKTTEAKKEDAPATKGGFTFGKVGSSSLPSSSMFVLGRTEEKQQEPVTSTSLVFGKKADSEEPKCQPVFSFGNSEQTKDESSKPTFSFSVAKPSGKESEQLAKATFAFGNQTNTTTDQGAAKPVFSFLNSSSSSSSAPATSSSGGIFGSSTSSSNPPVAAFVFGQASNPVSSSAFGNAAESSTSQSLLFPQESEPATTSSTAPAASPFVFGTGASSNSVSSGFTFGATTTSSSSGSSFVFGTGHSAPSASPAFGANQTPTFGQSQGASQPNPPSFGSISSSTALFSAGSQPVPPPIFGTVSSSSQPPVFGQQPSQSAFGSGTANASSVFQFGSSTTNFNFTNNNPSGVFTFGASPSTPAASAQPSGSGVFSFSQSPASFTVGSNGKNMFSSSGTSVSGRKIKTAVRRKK


target: T1, FLAG-tagged mouse NUP153 (mouse); experiment: affinity purification with mass spectrometry; FLAG-mNUP153 expressed in HEK293T; nuclear fraction pellet lysed, anti-FLAG M2 affinity gel at 4 °C for 2 h, eluted with FLAG peptide, LC-MS/MS; mock transfected cells as control

Molecule | binding
RAD21 (from UniProt O60216 1-631) | binds
SMC3 (from UniProt Q9UQE7 1-1217) | binds
TPR (from UniProt P12270 1-2363) | binds
SMC1A (protein, UniProt Q14683 1-1233) MGFLKLIEIENFKSYKGRQIIGPFQRFTAIIGPNGSGKSNLMDAISFVLGEKTSNLRVKTLRDLIHGAPVGKPAANRAFVSMVYSEEGAEDRTFARVIVGGSSEYKINNKVVQLHEYSEELEKLGILIKARNFLVFQGAVESIAMKNPKERTALFEEISRSGELAQEYDKRKKEMVKAEEDTQFNYHRKKNIAAERKEAKQEKEEADRYQRLKDEVVRAQVQLQLFKLYHNEVEIEKLNKELASKNKEIEKDKKRMDKVEDELKEKKKELGKMMREQQQIEKEIKEKDSELNQKRPQYIKAKENTSHKIKKLEAAKKSLQNAQKHYKKRKGDMDELEKEMLSVEKARQEFEERMEEESQSQGRDLTLEENQVKKYHRLKEEASKRAATLAQELEKFNRDQKADQDRLDLEERKKVETEAKIKQKLREIEENQKRIEKLEEYITTSKQSLEEQKKLEGELTEEVEMAKRRIDEINKELNQVMEQLGDARIDRQESSRQQRKAEIMESIKRLYPGSVYGRLIDLCQPTQKKYQIAVTKVLGKNMDAIIVDSEKTGRDCIQYIKEQRGEPETFLPLDYLEVKPTDEKLRELKGAKLVIDVIRYEPPHIKKALQYACGNALVCDNVEDARRIAFGGHQRHKTVALDGTLFQKSGVISGGASDLKAKARRWDEKAVDKLKEKKERLTEELKEQMKAKRKEAELRQVQSQAHGLQMRLKYSQSDLEQTKTRHLALNLQEKSKLESELANFGPRINDIKRIIQSREREMKDLKEKMNQVEDEVFEEFCREIGVRNIREFEEEKVKRQNEIAKKRLEFENQKTRLGIQLDFEKNQLKEDQDKVHMWEQTVKKDENEIEKLKKEEQRHMKIIDETMAQLQDLKNQHLAKKSEVNDKNHEMEEIRKKLGGANKEMTHLQKEVTAIETKLEQKRSDRHNLLQACKMQDIKLPLSKGTMDDISQEEGSSQGEDSVSGSQRISSIYAREALIEIDYGDLCEDLKDAQAEEEIKQEMNTLQQKLNEQQSVLQRIAAPNMKAMEKLESVRDKFQETSDEFEAARKRAKKAKQAFEQIKKERFDRFNACFESVATNIDEIYKALSRNSSAQAFLGPENPEEPYLDGINYNCVAPGKRFRPMDNLSGGEKTVAALALLFAIHSYKPAPFFVLDEIDAALDNTNIGKVANYIKEQSTCNFQAIVISLKEEFYTKAESLIGVYPEQGDCVISKVLTFDLTKYPDANPNPNEQ | binds

No constants are given. Whether binding was seen depends on the method and setting. In cells and extracts the contact can be indirect. A yes stands for co-enrichment or nearness to the bait. Other partners may have been found. Tags and fused reporters may be left off the sequences shown.
